Experimental data reported in the supplement of paper PMC4604168 (melanoma cell lines).
Some of the results follow. Many values rest on one well or one pass, so single values are uncertain.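 Imaging used 1,536-well plates; nuclei positive for cleaved PARP by antibody were divided by total DNA-stained nuclei to yield the apoptosis fraction. Doses for screening kept most cells viable, and cell lines differ markedly in resting and induced cleaved-PARP levels.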

Tests used:
Test in all cases: cleaved PARP positive nuclei fraction relative to DMSO control; melanoma cells; higher = more apoptosis
Details in all cases: library dose: low library concentration; 72 h
501Mel = test system: 501Mel
A101D = test system: A101D
A2058 = test system: A2058
A375 = test system: A375
C32 = test system: C32
CBRC008 = test system: CBRC008 (line from a melanoma biopsy)
CBRC013 = test system: CBRC013 (line from a melanoma biopsy)
CBRC014 = test system: CBRC014 (line from a melanoma biopsy)
CBRC016 = test system: CBRC016 (line from a melanoma biopsy)
CBRC017 = test system: CBRC017 (line from a melanoma biopsy)
COLO792 = test system: COLO792
COLO800 = test system: COLO800
COLO829 = test system: COLO829
G361 = test system: G361
IPC-298 = test system: IPC-298
IST-MEL1 = test system: IST-MEL1
LB2518-MEL = test system: LB2518-MEL
LOXIMVI = test system: LOXIMVI
MEL-HO = test system: MEL-HO

SMILES	cleaved PARP positive nuclei fraction (501Mel) [%]	cleaved PARP positive nuclei fraction (A101D) [%]	cleaved PARP positive nuclei fraction (A2058) [%]	cleaved PARP positive nuclei fraction (A375) [%]	cleaved PARP positive nuclei fraction (C32) [%]	cleaved PARP positive nuclei fraction (CBRC008) [%]	cleaved PARP positive nuclei fraction (CBRC013) [%]	cleaved PARP positive nuclei fraction (CBRC014) [%]	cleaved PARP positive nuclei fraction (CBRC016) [%]	cleaved PARP positive nuclei fraction (CBRC017) [%]	cleaved PARP positive nuclei fraction (COLO792) [%]	cleaved PARP positive nuclei fraction (COLO800) [%]	cleaved PARP positive nuclei fraction (COLO829) [%]	cleaved PARP positive nuclei fraction (G361) [%]	cleaved PARP positive nuclei fraction (IPC-298) [%]	cleaved PARP positive nuclei fraction (IST-MEL1) [%]	cleaved PARP positive nuclei fraction (LB2518-MEL) [%]	cleaved PARP positive nuclei fraction (LOXIMVI) [%]	cleaved PARP positive nuclei fraction (MEL-HO) [%]
CN1CCN(c2ccc3nc(-c4c(N)c5c(F)cccc5[nH]c4=O)[nH]c3c2)CC1 [Dovitinib] + Cn1cncc1[C@@](N)(c1ccc(Cl)cc1)c1ccc2c(c1)c(-c1cccc(Cl)c1)cc(=O)n2C [tipifarnib] (first compound 0.1 µM, partner dose 0.01 µM)	235	190	223	297	139	65	119	99.1	263	107	162	158	132	52.3	52.1	69.8	59.5	126	141
Nc1ncn([C@H]2C[C@H](O)[C@@H](CO)O2)c(=O)n1 [decitabine] + Cc1ccc(NC(=O)c2cccc(N(C)C)c2)cc1NC(=O)c1ccc(O)cc1 [ZM336372] (first compound 0.1 µM, partner dose 2 µM)	105	45.8	111	119	73.9	130	80.8	105	177	126	191	109	110	51.9	75.6	101	304	80.5	361
Nc1nc(F)nc2c1ncn2[C@@H]1O[C@H](CO)[C@@H](O)[C@@H]1O [fludarabine] + Cc1cc(N2CCOCC2)cc2[nH]c(-c3c(NC[C@@H](O)c4cccc(Cl)c4)cc[nH]c3=O)nc12 [BMS536924] (first compound 0.2 µM, partner dose 0.2 µM)	2310	52.2	131	17900	79.2	257	460	111	29.8	87.3	129	146	63.8	93.7	190	52.4	103	72.9	136
CCCS(=O)(=O)Nc1ccc(F)c(C(=O)c2c[nH]c3ncc(Cl)cc23)c1F + C[C@@H]1CCN(C(=O)CC#N)C[C@@H]1N(C)c1ncnc2[nH]ccc12 [CP690550] (first compound 0.08 µM, partner dose 1 µM)	89.1	45.7	106	387	94.2	425	156	80.3	163	75.1	92.5	165	79.3	118	189	99.4	89.5	44	104
Cn1c(=O)n(-c2ccc(C(C)(C)C#N)cc2)c2c3cc(-c4cnc5ccccc5c4)ccc3ncc21 + OCCn1cc(-c2cnc3nnn(Cc4ccc5ncccc5c4)c3n2)cn1 [PF04217903] (first compound 0.004 µM, partner dose 1 µM)	49.2	93.3	107	75.9	50.6	100	67.6	89.2	137	101	105	36.3	105	120	59.8	193	148	66.2	78.1
CC(C)C[C@H](NC(=O)[C@H](Cc1ccccc1)NC(=O)c1cnccn1)B(O)O [Bortezomib] + CC(C)(C)c1cnc(CSc2cnc(NC(=O)C3CCNCC3)s2)o1 [SNS-032] (first compound 0.001 µM, partner dose 0.01 µM)	584	267	148	85.4	91.6	659	132	246	284	251	65.1	137	106	3050	78.9	34.1	251	166	74.5
O=C(O)[C@@H]1[O][Sb](=[O])([O][Sb]2(=[O])[O][C@H]([C@H](O)CO)[C@H](O)[C@H](C(=O)O)[O]2)[O][C@H]([C@H](O)CO)[C@@H]1O (stereo partly drawn) [stibogluconate] + NC(=O)Nc1cc(-c2cccc(F)c2)sc1C(=O)N[C@H]1CCCNC1 [AZD7762] (first compound 2 µM, partner dose 0.02 µM)	87.5	85.5	138	482	117	62.8	83	95.3	70.6	150	49.2	37.5	61	47.4	85.4	122	62.7	14.7	65.9
Nc1nc(F)nc2c1ncn2[C@@H]1O[C@H](CO)[C@@H](O)[C@@H]1O [fludarabine] + NC(=O)Nc1cc(-c2cccc(F)c2)sc1C(=O)N[C@H]1CCCNC1 [AZD7762] (first compound 0.2 µM, partner dose 0.02 µM)	1470	209	140	10700	124	54.2	504	86.9	87.9	212	165	65.4	98.5	81.3	93.8	231	187	277	76.9
CNC(=O)c1cc(Oc2ccc(NC(=O)Nc3ccc(Cl)c(C(F)(F)F)c3)cc2)ccn1 [sorafenib] + CN(NC(=O)CC(=O)NN(C)C(=S)c1ccccc1)C(=S)c1ccccc1 [STA4783] (first compound 0.4 µM, partner dose 0.006 µM)	145	47.4	138	660	43.6	3340	132	331	242	608	116	155	185	141	141	176	93.7	223	33.9
Nc1ccn([C@@H]2O[C@H](CO)[C@@H](O)C2(F)F)c(=O)n1 [gemcitabine] + OCCn1cc(-c2cnc3nnn(Cc4ccc5ncccc5c4)c3n2)cn1 [PF04217903] (first compound 0.0004 µM, partner dose 1 µM)	149	108	107	112	217	123	74.3	235	149	104	212	178	102	174	118	346	125	37.5	355
CS(=O)(=O)CCNCc1ccc(-c2ccc3ncnc(Nc4ccc(OCc5cccc(F)c5)c(Cl)c4)c3c2)o1 [lapatinib] + CO[C@@H]1[C@H](N(C)C(=O)c2ccccc2)C[C@H]2O[C@]1(C)n1c3ccccc3c3c4c(c5c6ccccc6n2c5c31)C(=O)NC4 [Midostaurin] (first compound 0.8 µM, partner dose 0.08 µM)	70.5	293	288	72.5	110	389	106	118	157	96	141	78.3	24.6	111	147	180	275	274	107
C[C@@H](Oc1cc(-c2cnn(C3CCNCC3)c2)cnc1N)c1c(Cl)ccc(F)c1Cl [Crizotinib] + NC(=O)Nc1cc(-c2cccc(F)c2)sc1C(=O)N[C@H]1CCCNC1 [AZD7762] (first compound 0.2 µM, partner dose 0.02 µM)	183	415	50.4	109	142	47.6	90.7	94.9	94.4	90.5	93.8	117	73.8	72.4	92.9	54.1	36.1	74	67.9
Nc1ncn([C@H]2C[C@H](O)[C@@H](CO)O2)c(=O)n1 [decitabine] + COc1cc(Nc2ncc(F)c(Nc3ccc4c(n3)NC(=O)C(C)(C)O4)n2)cc(OC)c1OC [Tamatinib] (first compound 0.1 µM, partner dose 0.4 µM)	90.2	44.8	85	77.9	142	275	108	85.5	56.2	165	368	177	130	34.4	138	185	151	278	86.3
CCCS(=O)(=O)Nc1ccc(F)c(C(=O)c2c[nH]c3ncc(Cl)cc23)c1F + O=C(CCCCCCC(=O)Nc1ccccc1)NO [vorinostat] (first compound 0.08 µM, partner dose 0.08 µM)	73.5	208	87.8	82.8	195	40.7	116	85.4	128	251	123	48.2	77.4	123	98.4	75.8	73.5	79.6	164
CNC(=O)c1cc(Oc2ccc(NC(=O)Nc3ccc(Cl)c(C(F)(F)F)c3)cc2)ccn1 [sorafenib] + NCC(=O)Nc1ccc(-n2nc(C(F)(F)F)cc2-c2ccc3c(ccc4ccccc43)c2)cc1 [OSU03012] (first compound 0.4 µM, partner dose 1 µM)	219	54	303	6090	90.6	33	76.8	92.4	76.5	91.2	100	121	106	138	57.4	52.8	85.9	96.7	65.7
CS(=O)(=O)CCNCc1ccc(-c2ccc3ncnc(Nc4ccc(OCc5cccc(F)c5)c(Cl)c4)c3c2)o1 [lapatinib] + C[C@@H]1CCN(C(=O)CC#N)C[C@@H]1N(C)c1ncnc2[nH]ccc12 [CP690550] (first compound 0.8 µM, partner dose 1 µM)	96.1	20.8	83.7	236	89.1	61.5	135	171	73.8	208	127	138	90.8	66.9	97.4	141	43.6	139	46.2
O=C(O)c1ccc2c(c1)nc(Nc1cccc(Cl)c1)c1ccncc12 + COc1cc2c(Oc3ccc4[nH]c(C)cc4c3F)ncnc2cc1OCCCN1CCCC1 [cediranib] (first compound 0.4 µM, partner dose 0.4 µM)	270	108	128	184	87.8	177	121	181	103	128	175	68.2	93.2	121	63.6	84	64.1	132	155

Shown with bars between the fields: entries from further up.
SMILES | cleaved PARP positive nuclei fraction (501Mel) [%] | cleaved PARP positive nuclei fraction (A101D) [%] | cleaved PARP positive nuclei fraction (A2058) [%] | cleaved PARP positive nuclei fraction (A375) [%] | cleaved PARP positive nuclei fraction (C32) [%] | cleaved PARP positive nuclei fraction (CBRC008) [%] | cleaved PARP positive nuclei fraction (CBRC013) [%] | cleaved PARP positive nuclei fraction (CBRC014) [%] | cleaved PARP positive nuclei fraction (CBRC016) [%] | cleaved PARP positive nuclei fraction (CBRC017) [%] | cleaved PARP positive nuclei fraction (COLO792) [%] | cleaved PARP positive nuclei fraction (COLO800) [%] | cleaved PARP positive nuclei fraction (COLO829) [%] | cleaved PARP positive nuclei fraction (G361) [%] | cleaved PARP positive nuclei fraction (IPC-298) [%] | cleaved PARP positive nuclei fraction (IST-MEL1) [%] | cleaved PARP positive nuclei fraction (LB2518-MEL) [%] | cleaved PARP positive nuclei fraction (LOXIMVI) [%] | cleaved PARP positive nuclei fraction (MEL-HO) [%]
Nc1ncn([C@H]2C[C@H](O)[C@@H](CO)O2)c(=O)n1 [decitabine] + COc1cc(Nc2ncc(F)c(Nc3ccc4c(n3)NC(=O)C(C)(C)O4)n2)cc(OC)c1OC [Tamatinib] (first compound 0.1 µM, partner dose 0.4 µM) | 90.2 | 44.8 | 85 | 77.9 | 142 | 275 | 108 | 85.5 | 56.2 | 165 | 368 | 177 | 130 | 34.4 | 138 | 185 | 151 | 278 | 86.3
CCCS(=O)(=O)Nc1ccc(F)c(C(=O)c2c[nH]c3ncc(Cl)cc23)c1F + O=C(CCCCCCC(=O)Nc1ccccc1)NO [vorinostat] (first compound 0.08 µM, partner dose 0.08 µM) | 73.5 | 208 | 87.8 | 82.8 | 195 | 40.7 | 116 | 85.4 | 128 | 251 | 123 | 48.2 | 77.4 | 123 | 98.4 | 75.8 | 73.5 | 79.6 | 164
CNC(=O)c1cc(Oc2ccc(NC(=O)Nc3ccc(Cl)c(C(F)(F)F)c3)cc2)ccn1 [sorafenib] + NCC(=O)Nc1ccc(-n2nc(C(F)(F)F)cc2-c2ccc3c(ccc4ccccc43)c2)cc1 [OSU03012] (first compound 0.4 µM, partner dose 1 µM) | 219 | 54 | 303 | 6090 | 90.6 | 33 | 76.8 | 92.4 | 76.5 | 91.2 | 100 | 121 | 106 | 138 | 57.4 | 52.8 | 85.9 | 96.7 | 65.7
